Literature values in patent US20130059295A1 (priority 2011, published 2013).
pKd: −log10 of the molar value. Read-outs that look alike come from different tables or passages of the source. Some of these results come from one statement about several compounds together. Some compounds share one range, which may span the group rather than tell each member.

Sequences of proteins named here, by UniProt entry; tags and fusion partners are left off. A change or cut given only in a name is not applied to a line headed by its entry.
UniProt P27245: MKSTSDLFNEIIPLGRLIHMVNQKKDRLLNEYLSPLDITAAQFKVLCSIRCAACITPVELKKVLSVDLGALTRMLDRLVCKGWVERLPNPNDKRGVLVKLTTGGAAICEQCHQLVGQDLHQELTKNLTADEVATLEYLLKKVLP
UniProt P0ACR9: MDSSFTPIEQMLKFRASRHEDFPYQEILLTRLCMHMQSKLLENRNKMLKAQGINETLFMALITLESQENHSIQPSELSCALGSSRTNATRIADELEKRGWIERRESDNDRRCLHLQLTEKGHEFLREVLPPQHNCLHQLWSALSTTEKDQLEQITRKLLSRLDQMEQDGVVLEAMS

Key:
MarR = MarR (Escherichia coli, UniProt P27245); conditions: read-out: Kd (apparent), cited from earlier work
EnrR = EnrR (Escherichia coli, UniProt P0ACR9); conditions: read-out: Kd (apparent); cited from earlier work

Structure (SMILES) | pKd (MarR) | pKd (MarR; MarR, Escherichia coli, one range printed for all listed ligands) | pKd (EnrR)
CC1=CC(=O)c2c(O)cccc2C1=O [plumbagin] | 3.00 to 3.30 | – | –
O=[N+]([O-])c1ccc(O)c([N+](=O)[O-])c1 [2,4-dinitrophenol] | – | 3.00 to 3.30 | 4.95 to 5.89
CCn1cc(C(=O)O)c(=O)c2ccc(C)nc21 [Nalidixic acid] | – | – | 4.95 to 5.89
CC[n+]1c(-c2ccccc2)c2cc(N)ccc2c2ccc(N)cc21 [ethidium bromide] | – | – | 4.95 to 5.89
CC1=CC(=O)c2ccccc2C1=O [menadione] | 3.00 to 3.30 | – | –
